At least one peptide structure holds a part that was inferred or is arguable (an end, a ring closure or a residue). Residues, ends and D or L forms follow the SMILES beside them. *: point of attachment. CH2Cl = ClC*
Molecular target: T1, recombinant Taspase1 (rTaspase1) (Homo sapiens, UniProt Q9H6P5)
T1 sequence (Q9H6P5 1-233 limits assumed): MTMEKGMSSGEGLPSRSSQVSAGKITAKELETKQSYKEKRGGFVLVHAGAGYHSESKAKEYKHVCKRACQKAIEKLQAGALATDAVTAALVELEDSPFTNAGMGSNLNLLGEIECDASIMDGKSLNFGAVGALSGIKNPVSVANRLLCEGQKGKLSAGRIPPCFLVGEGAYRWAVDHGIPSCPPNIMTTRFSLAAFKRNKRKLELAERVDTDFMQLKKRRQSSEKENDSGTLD
Experiment: Taspase1-MLL in vitro cleavage assay (IVTT 35S methionine labeled p75MLL reporter, SDS-PAGE, autoradiography)
Type: biochemical
Conditions: indicated concentrations, 30 minutes pretreatment

CC[C@H](C)[C@H](NC(C)=O)C(=O)N[C@@H](CO)C(=O)N[C@@H](CCC(N)=O)C(=O)N[C@@H](CC(C)C)C(=O)N[C@@H](CC(=O)O)C(=O)CCl [ISQLD-cmk] (Ac-ISQLD-CH2Cl)
Inhibition of Taspase1-mediated p75MLL cleavage (in words): minimal activity
